Laboratory results as given in PubChem BioAssay AID493014 (National Center for Advancing Translational Sciences (NCATS), 2011).
This is one part of the list. Shown are side measurements of this screen, not its main read-out; they come without a call. Compounds called inactive in the main read-out are mostly missing here. Potencies come from curve fits of mixed quality, noted in brackets.

Assay: qHTS Assay to Find Inhibitors of Chronic Active B-Cell Receptor Signaling
Conditions: ABC-DLBCL IkBa-CBG/CBR reporter, luminescence ratio (green luciferase fused to IkBa over red control in TMD8 lymphoma cells), 4 h
Method in brief: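 Cell line TMD8 (human ABC DLBCL), stably expressing tet-inducible CBG68-IkBa fusion and CBR; IMDM/0.5% FBS; cpd up to 46 uM; dox induction, 4 h, 37C/5% CO2; dual luminescence; green/red ratio; MG132 control.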

[1] = measured here: CBR red luminescence, cell number
[2] = measured here: IkBa-CBG green luminescence

SMILES	AC50 [1]	AC50 [2]
COc1ccc(S(=O)(=O)Nc2c(O)c3ccccc3oc2=O)cc1	31.6 µM [falling, single point]	–
COc1ccc(-c2nc(-c3ccncc3)no2)cc1OC	5.01 µM [rising, single point]	–
CC(C)N1C(=O)C2C(C(=O)NC3CCCCC3)C3C=CC2(O3)C1C(=O)NC1CCCC1 (configuration not stated)	0.00461 µM [rising, full curve, poor fit]	–
c1csc(-c2nn3c(C4COc5ccccc5O4)nnc3s2)c1 (configuration not stated)	0.651 µM [falling, full curve, poor fit]	–
Cc1cccc(C(=O)Oc2ccc(/C=N/NC(=O)c3ccccc3O)cc2)c1	6.51 µM [falling, partial curve, poor fit]	–
C/C(=N/Nc1nc(-c2ccc(Cl)cc2)cs1)c1cccs1	0.206 µM [falling, full curve]	–
O=C(NCCN1CCN(c2ccccc2F)CC1)C1CC(=O)N(C2CCCC2)C1 (configuration not stated)	3.16 µM [falling, single point]	–
COc1cc(/C=N/O)ccc1OCc1ccccc1Cl	35.5 µM [falling, single point]	–
NC(=O)c1ccsc1NC(=O)COC(=O)CSc1ccc(Cl)cc1	0.708 µM [falling, full curve, poor fit]	–
CCN(CC)S(=O)(=O)c1ccc2c(c1)c(=O)c(C(=O)N1CCN(c3ccccn3)CC1)cn2C	0.1 µM [falling, full curve, poor fit]	–
C/C=C/c1ccc(OCCNCc2ccccc2)c(OC)c1	35.5 µM [rising, partial curve, poor fit]	–
COc1cccc(Nc2nn3c(=O)c4ccccc4nc3s2)c1	0.651 µM [falling, partial curve, poor fit]	0.0517 µM [rising, full curve, poor fit]
Cc1ccc(C(=O)OC(C)C(=O)Nc2ccc(S(N)(=O)=O)cc2)cc1S(=O)(=O)N1CCOCC1 (configuration not stated)	13 µM [rising, partial curve, poor fit]	–
O=C(O)c1ccccc1NN=C1CCCCC1	14.6 µM [falling, single point]	–
O=C1c2cccc3cc([N+](=O)[O-])cc(c23)C(=O)N1CCN1CCCC1	35.5 µM [falling, single point]	6.31 µM [rising, partial curve, poor fit]
COc1ccc2nc3oc(C(=O)N4CCCCC4)cc3cc2c1	32.6 µM [falling, single point]	–
Cc1cc(C)c2c(N)c(C(=O)NN3CC(=O)N(c4ccccc4)CC3=O)sc2n1	7.08 µM [falling, partial curve]	6.31 µM [rising, full curve]
CCc1ccc(NC(=O)c2cc(S(=O)(=O)N3CCCC3)ccc2F)cc1	17.8 µM [falling, partial curve, poor fit]	–
Cc1noc(C)c1S(=O)(=O)Nc1ccc2c(c1)C(=O)N([C@H](C)CO)C[C@H](C)[C@@H](CN(C)C(=O)NC1CCCCC1)O2	25.9 µM [rising, partial curve, poor fit]	–

Shown field by field: entries from further up.
COc1ccc(-c2nc(-c3ccncc3)no2)cc1OC
  AC50 [1]: 5.01 µM [rising, single point]
Cc1ccc(C(=O)OC(C)C(=O)Nc2ccc(S(N)(=O)=O)cc2)cc1S(=O)(=O)N1CCOCC1 (configuration not stated)
  AC50 [1]: 13 µM [rising, partial curve, poor fit]

Remaining list, next part

SMILES	AC50 [1]	AC50 [2]
N#CC1C(C#N)N2CCCN2C1c1ccc(Br)cc1 (configuration not stated)	6.31 µM [falling, single point]	–
COc1ccc(S(=O)(=O)N(C)c2ccc(C(=O)Nc3cccnc3)cc2)cc1	35.5 µM [falling, single point]	–
O=C(OCc1cccc(C(F)(F)F)c1)c1cc([N+](=O)[O-])ccc1N1CCOCC1	2.06 µM [rising, partial curve]	–
CN(C)CCCn1c(SCC(=O)N2c3ccccc3Sc3ccccc32)nc2ccccc2c1=O	9.2 µM [falling, partial curve]	–
Cc1ccccc1N/C(=N/S(=O)(=O)c1cc(F)ccc1F)c1ccccc1	8.91 µM [falling, partial curve, poor fit]	–
COc1cc(/C=C(\C#N)C(=O)N2CCc3ccccc32)ccc1O	1 µM [falling, full curve, poor fit]	–
N#Cc1ccccc1OCC(=O)Nc1cccc(S(=O)(=O)N2CCCC2)c1	2.31 µM [falling, full curve]	–
COc1ccc(N2CCN(C(=O)c3ccc4c(c3)NC(=O)C(CSCc3cccc(F)c3)N4)CC2)cc1 (configuration not stated)	35.5 µM [rising, single point]	15.8 µM [falling, single point]
COc1ccc(C(=O)Nc2nnc(SCC(=O)NCc3ccco3)s2)c(OC)c1	8.91 µM [falling, partial curve]	–
COc1cc2ncc(S(=O)(=O)c3ccccc3)c(N3CCCC(C)C3)c2cc1OC (configuration not stated)	12.6 µM [falling, single point]	–
O=C(NC(=S)N1CCN(c2c(Cl)cccc2[N+](=O)[O-])CC1)c1cccs1	20.6 µM [rising, single point]	–
O=C(c1cccc(S(=O)(=O)N2CCOCC2)c1)N1CCCCCC1	13 µM [rising, single point]	–
O=C(CSc1ncccn1)N1CCCc2ccccc21	35.5 µM [rising, single point]	–
COc1ccc2cc3c(N)nn(C(=O)c4ccc(F)cc4)c3nc2c1	4.47 µM [falling, full curve, poor fit]	–
Cc1nc(-c2cccc(NS(=O)(=O)c3cccc4ccccc34)c2)cs1	6.51 µM [falling, partial curve, poor fit]	–
COc1cc(-c2noc(C)c2C(=O)NCCc2cccs2)cc(OC)c1OC	1.84 µM [rising, full curve, poor fit]	–
CCN(CC)c1ccc(NC(=O)CN(C)Cc2cccs2)cc1	35.5 µM [rising, partial curve, poor fit]	–
O=C1C2CC=C(Cl)CC2C(=O)N1CCCCCCN1C(=O)C2CC=C(Cl)CC2C1=O (configuration not stated)	7.31 µM [rising, single point]	–
COc1ccccc1NC(=O)NN1CCCCC1	8.91 µM [rising, partial curve, poor fit]	–
